This passage reports binding results from paper PMC7737771, “In‐depth interrogation of protein thermal unfolding data with MoltenProt” (Protein Science : A Publication of the Protein Society, 2020).

These are yes or no findings as the source states them, for the method shown. Some binding calls cover weakened binding; strength is not graded here.

The target in one assay is T1, KtrB (UniProt O32081).
T1 sequence: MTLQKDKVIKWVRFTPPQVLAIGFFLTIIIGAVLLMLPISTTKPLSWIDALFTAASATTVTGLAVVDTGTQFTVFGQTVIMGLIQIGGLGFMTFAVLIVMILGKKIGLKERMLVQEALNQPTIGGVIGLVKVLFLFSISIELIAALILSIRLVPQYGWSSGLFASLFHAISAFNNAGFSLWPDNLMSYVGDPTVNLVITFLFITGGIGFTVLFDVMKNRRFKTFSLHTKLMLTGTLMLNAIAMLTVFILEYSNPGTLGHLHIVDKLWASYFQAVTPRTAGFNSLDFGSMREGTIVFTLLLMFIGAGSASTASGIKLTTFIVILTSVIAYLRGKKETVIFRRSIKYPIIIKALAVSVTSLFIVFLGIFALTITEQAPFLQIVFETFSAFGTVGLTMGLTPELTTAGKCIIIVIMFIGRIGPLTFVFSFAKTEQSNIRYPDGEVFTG
The assay is described as follows: reconstitution and co-purification (affinity chromatography, then SEC); KtrA‐ATP or KtrA‐AMP added to KtrB at the affinity chromatography step of KtrB purification (1 mM ATP or 10 μM AMP); complex dialyzed and purified by SEC in 20 mM Tris–HCl pH 8.0, 120 mM NaCl, 30 mM KCl, 5 mM DTT, 1.5 mM CYMAL‐6; only the binder purified. A general note: In gel filtration, larger molecules generally elute earlier.

The target of assay [1] is RuvB from Streptococcus thermophilus (Streptococcus thermophilus) (UniProt Q03IE9). In words: negative staining electron microscopy; RuvB in 20 mM Tris pH 8.0, 20 mM NaCl, 10 mM MgCl2, 2% glycerol, 0.5 mM DTT with 1 mM ATPgS; 2% uranyl acetate; both purified.

B1: KtrA (protein, UniProt O32080 1-222)
chain: MGRIKNKQFAVIGLGRFGGSICKELHRMGHEVLAVDINEEKVNAYASYATHAVIANATEENELLSLGIRNFEYVIVAIGANIQASTLTTLLLKELDIPNIWVKAQNYYHHKVLEKIGADRIIHPEKDMGVKIAQSLSDENVLNYIDLSDEYSIVELLATRKLDSKSIIDLNVRAKYGCTILAIKHHGDICLSPAPEDIIREQDCLVIMGHKKDIKRFENEGM
For B1, the binding entry with KtrB was “binds”.

B2: RuvB from Streptococcus thermophilus (enzyme, UniProt Q03IE9 1-333)
chain: MARILDNDLLGDEEYVERTLRPQYFKEYIGQDKVKDQLKIFIEAAKLRDEALDHTLLFGPPGLGKTTMAFVIANEMGVNLKQTSGPAIEKAGDLVAILNDLEPGDILFIDEIHRMPMAVEEVLYSAMEDYYIDIMIGAGETSRSVHLDLPPFTLVGATTRAGMLSNPLRARFGINGHMEYYELPDLTEIVERTSEIFEMTITPEAALELARRSRGTPRIANRLLKRVRDYAQIMGDGVIDDKIADQALTMLDVDHEGLDYVDQKILRTMIEMYGGGPVGLGTLSVNIAEERETVEDMYEPYLIQKGFIMRTRTGRVATAKAYEHMGYDYTRDN
Regarding B2, the binding result in assay [1] is given as “binds”.
